# Record: PubChem BioAssay AID1671195 (Yale University, 2021)
# Aim: 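Knockdowns that increase or decrease uptake of fluorescent LDL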 (primary screen)
# System: human Huh7 hepatoma cells
# Reagent: siRNA pool against human genes, 18 nM
# Time to read-out: about 2 to 2.5 days of knockdown, then 8 h LDL uptake
# Challenge: DiI-labelled LDL at 30 µg/ml for 8 h, in lipoprotein-deficient serum medium
# Detection: 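Fluorescent LDL signal imaged in cells, scaled to the plate median, robust z-score for each replicate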
# Reading the numbers: robust z-score: higher = more LDL uptake after knockdown
# Rule for the call: 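a gene counts as active if at least two replicate z-scores exceed ±2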
# The whole screen tested about 22,000 reagents; this is a part drawn at random. About 1,510 of them (6.9%) were called active. 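Active includes knockdowns raising or lowering LDL uptake; positive z-scores mean more uptake, negative mean less.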 The numbers tell different reagents against one gene apart.
Gene,reagent no.,"robust z-score, replicate 1","robust z-score, replicate 2","robust z-score, replicate 3",outcome
TAFA4 (TAFA chemokine like family member 4),1,0.409,-0.356,0.443,inactive
CCNA2 (cyclin A2),1,-0.478,0.668,-0.674,inactive
DUSP16 (dual specificity phosphatase 16),1,0.00948,0.0384,-0.29,inactive
"DEPDC5 (DEP domain containing 5, GATOR1 subcomplex subunit)",1,2.33,2.1,-0.214,active
NFKB1 (nuclear factor kappa B subunit 1),1,0.393,0.43,0.295,inactive
BTF3P13 (basic transcription factor 3 pseudogene 13),1,1.18,0.211,0.15,inactive
DRD1 (dopamine receptor D1),1,-0.303,0.807,0.201,inactive
LOC442385 (retired record),1,-0.341,-0.796,-0.797,inactive
ACADSB (acyl-CoA dehydrogenase short/branched chain),1,0.658,0.242,0.12,inactive
ESRP1 (epithelial splicing regulatory protein 1),1,0.221,-0.116,-0.0475,inactive
"MALL (mal, T cell differentiation protein like)",1,0.335,1.05,0.932,inactive
NUFIP2 (nuclear FMR1 interacting protein 2),1,-1.3,0.0982,0.665,inactive
FCGBP (Fc gamma binding protein),1,0.0294,0.45,-1.01,inactive
LINC00667 (long independently transcribed non-coding RNA 667),1,2.3,2.59,2.11,active
LINC00667 (long independently transcribed non-coding RNA 667),2,1.02,1.06,0.688,inactive
ZNF169 (zinc finger protein 169),1,-1.62,-1.54,-1.76,inactive
PPEF1 (protein phosphatase with EF-hand domain 1),1,0.0794,1.56,-0.741,inactive
FOXRED2 (FAD dependent oxidoreductase domain containing 2),1,-1.57,-1.85,-1.51,inactive
L3HYPDH (trans-L-3-hydroxyproline dehydratase),1,-0.583,0.0704,-0.38,inactive
TCIM (transcriptional and immune response regulator),1,5.35,5.42,5.47,active
LOC388903 (retired record),1,-1.09,-1.31,-0.902,inactive
SHANK3 (SH3 and multiple ankyrin repeat domains 3),1,0.156,0.433,0.509,inactive
NDUFA2 (NADH:ubiquinone oxidoreductase subunit A2),1,1.8,0.772,0.26,inactive
OSBPL2 (oxysterol binding protein like 2),1,0.018,0.329,0.0448,inactive
OSBPL2 (oxysterol binding protein like 2),2,-1.66,-1.96,-1.79,inactive
EEF1A1P9,1,1.14,2.62,3.13,active
MINDY1 (MINDY lysine 48 deubiquitinase 1),1,0.601,-0.281,0.205,inactive
SMG8 (SMG8 nonsense mediated mRNA decay factor),1,-0.221,-0.496,0.953,inactive
LOC283604 (retired record),1,-0.42,-0.43,-0.507,inactive
ZNF571 (zinc finger protein 571),1,0.358,-0.406,-0.667,inactive
EIF4A1 (eukaryotic translation initiation factor 4A1),1,-1.23,-1.07,-1.42,inactive
MATCAP2 (microtubule associated tyrosine carboxypeptidase 2),1,-2.72,-1.1,-3.36,active
ZFP69B (ZFP69 zinc finger protein B),1,-0.359,-0.401,-0.0172,inactive
CHRNA7 (cholinergic receptor nicotinic alpha 7 subunit),1,-1.65,-1.6,-2.1,inactive
HYAL3 (hyaluronidase 3),1,0.129,-0.0317,0.0786,inactive
AMPD3 (adenosine monophosphate deaminase 3),1,-1.16,-0.556,-0.986,inactive
RNF20 (ring finger protein 20),1,-0.539,0.394,-0.735,inactive
ITIH2 (inter-alpha-trypsin inhibitor heavy chain 2),1,0.334,-0.617,0.0249,inactive
SC5D (sterol-C5-desaturase),1,4.13,1.74,3.72,active
GPR17 (G protein-coupled receptor 17),1,-1.07,-0.896,-1.04,inactive
H2AC8 (H2A clustered histone 8),1,0.908,0.432,1.29,inactive
RPL11 (ribosomal protein L11),1,-1.34,-1.36,-0.879,inactive
RRP1B (ribosomal RNA processing 1B),1,-1.24,-1.71,-1.07,inactive
CDC42BPG (CDC42 binding protein kinase gamma),1,0.652,0.448,0.449,inactive
MED17 (mediator complex subunit 17),1,0.0606,0.198,0.465,inactive
HOXA10 (homeobox A10),1,-0.737,-0.98,-1.12,inactive
HP1BP3 (heterochromatin protein 1 binding protein 3),1,1.31,1.36,0.475,inactive
LOC133185 (retired record),1,-1.39,0.0196,-1.01,inactive
DPYS (dihydropyrimidinase),1,-0.216,-0.243,-0.337,inactive
MS4A2 (membrane spanning 4-domains A2),1,1.95,0.994,1.12,inactive
TMEM177 (transmembrane protein 177),1,-1.22,-0.893,-0.859,inactive
ZNF41 (zinc finger protein 41),1,-0.577,-1.13,-0.389,inactive
ZNHIT6 (zinc finger HIT-type containing 6),1,-1.56,0.352,-1.6,inactive
SSX3 (SSX family member 3),1,-0.873,-0.651,-0.911,inactive
LOC388338 (retired record),1,-1.67,-1.85,-1.81,inactive
RPS2P34 (ribosomal protein S2 pseudogene 34),1,-1.89,-2.01,-1.75,inactive
TNFSF10 (TNF superfamily member 10),1,-0.0817,-0.107,0.00703,inactive
CALD1 (caldesmon 1),1,-0.975,0.0152,-1.06,inactive
SLC11A2,1,-0.989,-0.202,-0.311,inactive
STX19 (syntaxin 19),1,2.55,2.34,1.9,active
GNA13 (G protein subunit alpha 13),1,-1.71,-1.44,-1.24,inactive
TTF2 (transcription termination factor 2),1,3.03,4.49,3.27,active
FOXN1 (forkhead box N1),1,-0.967,-1.5,-1.57,inactive
CTTN (cortactin),1,-1.05,-1.51,-1.62,inactive
CDR2-DT (CDR2 divergent transcript),1,-0.178,0.399,-0.246,inactive
DDX28 (DEAD-box helicase 28),1,0.634,1.21,0.961,inactive
GPR34 (G protein-coupled receptor 34),1,0.0594,-0.526,-0.496,inactive
TCP11L1 (t-complex 11 like 1),1,1.19,-1.22,-0.042,inactive
